Laboratory results taken from the supplement of paper PMC10849652.
Some of the results follow.

Protein sequences, listed by entry. Tags and fused reporters are not part of them. Lines headed by an entry give the natural chain unless they say otherwise; changes in a name come on top.
UniProt Q15653: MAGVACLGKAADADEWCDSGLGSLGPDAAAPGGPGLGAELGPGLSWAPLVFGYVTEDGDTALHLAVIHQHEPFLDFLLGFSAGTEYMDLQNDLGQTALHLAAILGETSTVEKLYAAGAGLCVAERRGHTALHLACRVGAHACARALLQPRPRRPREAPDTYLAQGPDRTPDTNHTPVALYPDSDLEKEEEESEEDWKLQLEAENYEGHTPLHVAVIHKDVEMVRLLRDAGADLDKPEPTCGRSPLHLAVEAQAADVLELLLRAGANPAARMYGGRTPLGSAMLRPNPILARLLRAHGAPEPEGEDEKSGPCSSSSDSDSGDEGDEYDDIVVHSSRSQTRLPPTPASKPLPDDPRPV
UniProt O75251, whole entry, looked up: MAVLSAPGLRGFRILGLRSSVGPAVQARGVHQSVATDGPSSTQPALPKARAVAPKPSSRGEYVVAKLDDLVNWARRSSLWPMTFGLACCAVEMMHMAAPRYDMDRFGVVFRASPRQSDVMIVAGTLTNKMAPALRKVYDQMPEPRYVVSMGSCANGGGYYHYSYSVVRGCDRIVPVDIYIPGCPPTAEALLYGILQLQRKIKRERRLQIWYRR
UniProt Q13469: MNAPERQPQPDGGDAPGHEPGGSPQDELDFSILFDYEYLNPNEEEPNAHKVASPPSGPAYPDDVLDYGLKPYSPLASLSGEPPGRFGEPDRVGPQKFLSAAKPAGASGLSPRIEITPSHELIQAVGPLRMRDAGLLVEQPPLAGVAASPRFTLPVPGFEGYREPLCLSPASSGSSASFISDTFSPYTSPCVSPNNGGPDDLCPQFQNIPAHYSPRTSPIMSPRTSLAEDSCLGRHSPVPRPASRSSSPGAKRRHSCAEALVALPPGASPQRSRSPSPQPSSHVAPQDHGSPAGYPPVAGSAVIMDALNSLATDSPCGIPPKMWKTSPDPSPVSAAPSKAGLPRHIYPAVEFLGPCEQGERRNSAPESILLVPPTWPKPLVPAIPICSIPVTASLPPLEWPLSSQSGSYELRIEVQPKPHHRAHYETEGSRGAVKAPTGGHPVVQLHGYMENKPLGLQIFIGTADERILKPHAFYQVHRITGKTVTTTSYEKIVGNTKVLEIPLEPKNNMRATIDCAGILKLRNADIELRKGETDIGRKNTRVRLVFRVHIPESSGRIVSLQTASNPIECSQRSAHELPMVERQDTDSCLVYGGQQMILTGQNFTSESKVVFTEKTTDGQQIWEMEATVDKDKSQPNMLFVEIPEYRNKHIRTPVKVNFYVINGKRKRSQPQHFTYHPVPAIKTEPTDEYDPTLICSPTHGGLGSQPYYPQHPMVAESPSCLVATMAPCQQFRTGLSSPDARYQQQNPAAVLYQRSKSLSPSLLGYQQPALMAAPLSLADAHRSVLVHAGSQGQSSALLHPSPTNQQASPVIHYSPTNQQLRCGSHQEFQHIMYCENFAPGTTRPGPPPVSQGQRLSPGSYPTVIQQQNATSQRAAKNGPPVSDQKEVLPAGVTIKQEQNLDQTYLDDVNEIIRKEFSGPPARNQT
UniProt P46934: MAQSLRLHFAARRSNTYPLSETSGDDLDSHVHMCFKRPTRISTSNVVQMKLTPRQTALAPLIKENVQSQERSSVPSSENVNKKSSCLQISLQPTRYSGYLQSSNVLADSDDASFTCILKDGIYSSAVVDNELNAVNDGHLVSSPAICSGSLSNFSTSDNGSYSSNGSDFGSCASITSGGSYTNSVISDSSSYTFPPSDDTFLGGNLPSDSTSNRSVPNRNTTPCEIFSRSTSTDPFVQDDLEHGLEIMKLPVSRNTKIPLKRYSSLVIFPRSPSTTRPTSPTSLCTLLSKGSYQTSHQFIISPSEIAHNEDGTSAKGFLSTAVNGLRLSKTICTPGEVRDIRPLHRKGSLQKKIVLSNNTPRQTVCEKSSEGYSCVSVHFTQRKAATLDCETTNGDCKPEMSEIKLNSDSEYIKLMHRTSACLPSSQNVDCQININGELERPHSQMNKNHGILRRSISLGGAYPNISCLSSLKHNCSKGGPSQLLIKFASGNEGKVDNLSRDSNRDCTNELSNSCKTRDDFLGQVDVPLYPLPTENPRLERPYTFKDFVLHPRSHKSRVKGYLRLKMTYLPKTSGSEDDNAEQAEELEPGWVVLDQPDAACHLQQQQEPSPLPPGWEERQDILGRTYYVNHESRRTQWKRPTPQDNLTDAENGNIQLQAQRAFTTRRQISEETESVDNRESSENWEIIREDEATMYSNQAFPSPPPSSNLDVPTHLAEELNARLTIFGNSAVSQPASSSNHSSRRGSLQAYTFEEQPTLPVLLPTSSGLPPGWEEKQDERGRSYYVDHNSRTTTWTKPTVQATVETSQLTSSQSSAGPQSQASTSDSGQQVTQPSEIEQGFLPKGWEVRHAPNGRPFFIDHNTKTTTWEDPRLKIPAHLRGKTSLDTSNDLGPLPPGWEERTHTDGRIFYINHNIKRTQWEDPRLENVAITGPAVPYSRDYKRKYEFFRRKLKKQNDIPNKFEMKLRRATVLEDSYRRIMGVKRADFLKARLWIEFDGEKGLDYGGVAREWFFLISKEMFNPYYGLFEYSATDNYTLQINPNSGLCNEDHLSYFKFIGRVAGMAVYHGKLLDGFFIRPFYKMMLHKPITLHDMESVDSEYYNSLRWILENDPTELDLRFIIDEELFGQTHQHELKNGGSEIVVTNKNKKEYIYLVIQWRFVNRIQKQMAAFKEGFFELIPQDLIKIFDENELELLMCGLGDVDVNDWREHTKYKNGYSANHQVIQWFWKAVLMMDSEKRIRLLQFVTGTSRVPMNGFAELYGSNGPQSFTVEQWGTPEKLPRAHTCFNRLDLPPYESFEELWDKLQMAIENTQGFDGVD
UniProt Q9BYT8, whole entry, looked up: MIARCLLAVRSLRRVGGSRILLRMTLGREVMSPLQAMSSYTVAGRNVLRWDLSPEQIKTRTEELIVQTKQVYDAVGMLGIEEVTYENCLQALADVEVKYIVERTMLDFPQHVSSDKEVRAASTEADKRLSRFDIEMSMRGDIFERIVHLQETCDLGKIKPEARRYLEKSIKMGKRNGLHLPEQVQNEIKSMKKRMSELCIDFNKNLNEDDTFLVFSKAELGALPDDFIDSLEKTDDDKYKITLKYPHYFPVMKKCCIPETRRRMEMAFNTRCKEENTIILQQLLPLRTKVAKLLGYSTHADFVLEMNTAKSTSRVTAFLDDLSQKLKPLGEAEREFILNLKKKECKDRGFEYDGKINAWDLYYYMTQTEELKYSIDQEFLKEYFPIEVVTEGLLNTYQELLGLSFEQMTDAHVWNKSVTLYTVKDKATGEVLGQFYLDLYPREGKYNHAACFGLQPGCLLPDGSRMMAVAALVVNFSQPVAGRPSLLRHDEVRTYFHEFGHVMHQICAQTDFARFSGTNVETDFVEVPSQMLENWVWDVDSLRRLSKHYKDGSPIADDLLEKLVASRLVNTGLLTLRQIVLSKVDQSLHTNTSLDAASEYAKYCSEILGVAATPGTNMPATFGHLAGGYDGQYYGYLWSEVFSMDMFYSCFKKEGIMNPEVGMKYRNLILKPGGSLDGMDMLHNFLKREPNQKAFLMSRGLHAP
UniProt Q9NVX2: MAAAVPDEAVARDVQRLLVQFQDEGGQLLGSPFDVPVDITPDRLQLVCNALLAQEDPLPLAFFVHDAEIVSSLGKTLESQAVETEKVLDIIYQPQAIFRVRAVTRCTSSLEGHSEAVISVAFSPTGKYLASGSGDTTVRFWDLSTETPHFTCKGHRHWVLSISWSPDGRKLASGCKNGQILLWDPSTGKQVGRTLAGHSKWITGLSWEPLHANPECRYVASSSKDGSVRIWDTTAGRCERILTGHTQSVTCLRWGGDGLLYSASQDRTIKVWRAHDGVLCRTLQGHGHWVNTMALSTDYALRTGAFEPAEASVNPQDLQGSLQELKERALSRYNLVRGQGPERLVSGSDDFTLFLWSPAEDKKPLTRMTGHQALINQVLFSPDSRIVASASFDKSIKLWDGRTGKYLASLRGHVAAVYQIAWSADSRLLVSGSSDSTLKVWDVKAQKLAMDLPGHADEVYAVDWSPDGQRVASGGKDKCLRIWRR
UniProt Q9P032: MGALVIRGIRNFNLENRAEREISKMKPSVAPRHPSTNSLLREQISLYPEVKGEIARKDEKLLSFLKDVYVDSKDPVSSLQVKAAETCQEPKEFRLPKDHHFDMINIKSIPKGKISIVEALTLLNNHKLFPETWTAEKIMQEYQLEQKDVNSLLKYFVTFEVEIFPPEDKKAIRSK
UniProt Q12986: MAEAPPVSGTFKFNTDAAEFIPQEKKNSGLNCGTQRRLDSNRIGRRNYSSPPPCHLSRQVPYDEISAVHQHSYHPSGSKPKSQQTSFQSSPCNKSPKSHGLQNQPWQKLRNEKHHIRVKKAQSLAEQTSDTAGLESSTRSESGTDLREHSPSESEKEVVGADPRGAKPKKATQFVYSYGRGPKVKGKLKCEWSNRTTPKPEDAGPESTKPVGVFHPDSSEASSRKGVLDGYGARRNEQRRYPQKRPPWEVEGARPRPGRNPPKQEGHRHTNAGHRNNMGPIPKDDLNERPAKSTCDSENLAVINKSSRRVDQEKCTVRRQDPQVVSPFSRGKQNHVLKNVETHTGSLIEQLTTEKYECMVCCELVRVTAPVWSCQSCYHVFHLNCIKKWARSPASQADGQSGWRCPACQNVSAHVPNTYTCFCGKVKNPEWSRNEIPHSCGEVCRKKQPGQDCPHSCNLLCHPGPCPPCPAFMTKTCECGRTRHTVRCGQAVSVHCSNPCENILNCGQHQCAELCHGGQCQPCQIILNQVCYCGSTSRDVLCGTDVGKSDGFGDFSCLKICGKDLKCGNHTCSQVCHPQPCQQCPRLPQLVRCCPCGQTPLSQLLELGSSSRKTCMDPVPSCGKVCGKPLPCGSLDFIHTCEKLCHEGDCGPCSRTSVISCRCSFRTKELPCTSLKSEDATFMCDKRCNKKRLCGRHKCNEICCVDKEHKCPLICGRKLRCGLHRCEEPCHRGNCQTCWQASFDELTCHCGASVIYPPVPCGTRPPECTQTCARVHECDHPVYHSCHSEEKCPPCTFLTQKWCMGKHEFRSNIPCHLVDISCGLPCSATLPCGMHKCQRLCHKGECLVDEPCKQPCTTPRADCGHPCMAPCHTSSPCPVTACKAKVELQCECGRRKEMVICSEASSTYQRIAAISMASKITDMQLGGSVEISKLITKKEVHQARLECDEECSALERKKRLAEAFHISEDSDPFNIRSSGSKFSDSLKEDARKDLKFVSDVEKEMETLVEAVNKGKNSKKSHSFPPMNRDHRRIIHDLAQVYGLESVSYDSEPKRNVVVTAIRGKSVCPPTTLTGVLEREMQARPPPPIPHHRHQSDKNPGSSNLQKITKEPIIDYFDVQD
UniProt Q9NX24: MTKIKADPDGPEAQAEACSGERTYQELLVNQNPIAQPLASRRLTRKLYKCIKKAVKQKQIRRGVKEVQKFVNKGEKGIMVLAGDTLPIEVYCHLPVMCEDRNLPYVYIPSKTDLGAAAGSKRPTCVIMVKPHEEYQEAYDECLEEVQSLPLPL
UniProt O75306, whole entry, looked up: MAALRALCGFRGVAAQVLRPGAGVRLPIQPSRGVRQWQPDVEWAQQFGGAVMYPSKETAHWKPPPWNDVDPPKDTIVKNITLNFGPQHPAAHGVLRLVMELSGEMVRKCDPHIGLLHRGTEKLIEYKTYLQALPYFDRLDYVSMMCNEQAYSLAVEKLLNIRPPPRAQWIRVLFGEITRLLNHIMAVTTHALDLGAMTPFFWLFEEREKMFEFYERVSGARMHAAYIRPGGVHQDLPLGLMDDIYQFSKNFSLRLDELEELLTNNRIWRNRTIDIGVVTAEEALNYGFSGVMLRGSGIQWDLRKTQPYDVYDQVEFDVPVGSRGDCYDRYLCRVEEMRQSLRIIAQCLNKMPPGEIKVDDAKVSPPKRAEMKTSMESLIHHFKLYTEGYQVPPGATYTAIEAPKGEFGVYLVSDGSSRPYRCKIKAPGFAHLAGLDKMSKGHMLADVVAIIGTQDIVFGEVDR
UniProt P35240: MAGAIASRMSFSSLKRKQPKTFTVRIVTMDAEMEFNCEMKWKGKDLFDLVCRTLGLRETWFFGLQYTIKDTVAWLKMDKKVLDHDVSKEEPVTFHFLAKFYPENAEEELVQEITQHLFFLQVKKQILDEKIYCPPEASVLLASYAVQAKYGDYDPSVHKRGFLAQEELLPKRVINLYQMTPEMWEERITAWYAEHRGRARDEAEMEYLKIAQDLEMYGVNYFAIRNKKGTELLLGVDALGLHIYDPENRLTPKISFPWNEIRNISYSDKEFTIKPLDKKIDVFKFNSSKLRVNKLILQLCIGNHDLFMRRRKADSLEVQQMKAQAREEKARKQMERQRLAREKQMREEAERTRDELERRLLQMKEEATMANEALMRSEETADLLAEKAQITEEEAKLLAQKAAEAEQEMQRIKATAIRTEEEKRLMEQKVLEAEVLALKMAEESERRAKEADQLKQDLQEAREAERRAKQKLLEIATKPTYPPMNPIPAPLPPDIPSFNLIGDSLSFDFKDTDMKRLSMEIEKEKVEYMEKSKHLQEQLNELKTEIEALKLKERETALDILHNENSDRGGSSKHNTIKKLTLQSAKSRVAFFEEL

Columns and labels:
Test in all cases: log2 fold change, soluble protein after heating vs DMSO (PISA); higher = thermal stabilisation; K562 lysate, 10 uM; active = over 0.2 and 3.5 SD of the protein, either way, in both replicates (recomputed)
erlotinib = compound: C#Cc1cccc(Nc2ncnc3cc(OCCOC)c(OCCOC)cc23)c1 [erlotinib]
How it was run: (§1)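 K562 pellets were dounce-homogenised in PBS pH 7.4 with 1 mM MgCl2, and the crude extract at 1 mg/mL protein was treated with 10 μM compound for 30 min. Aliquots were heated for 3 min across 48°C-58°C, pooled, and brought to 0.5% NP-40 at 4°C; soluble protein was the supernatant after 21,000xg for 90 min. Soluble protein was quantified by TMTpro 16plex LC-MS/MS with channel sums equalised, and reported as log2 fold change in thermal stability against DMSO controls, with values from duplicates.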

[1] = compound: C/C(=N\NC(=O)C1=CC(=CC=C1)S(=O)(=O)N2CCOCC2)/C3=C(C=CC(=C3)Cl)O
How it was run: as §1

[2] = compound: C1=CC(=CC=C1C2=NC3=C(N2)C=C(C=C3)C(=O)N)OC4=CC=C(C=C4)Cl
How it was run: as §1

[3] = compound: C1=CC2=C(C=CC(=C2)/C=C\3/C(=O)NC(=NCC4=CC=CS4)S3)N=C1
How it was run: as §1

[4] = compound: C1=CC2=NC=CN=C2C=C1/C=C/3\C(=O)NC(=O)S3
How it was run: as §1

[5] = compound: C1=CC=C(C=C1)C2=NC(=C(N2)C3=CC=NC=C3)C4=CC(=C(C=C4)Cl)O
How it was run: as §1

[6] = compound: C1=CC=C2C(=C1)C3=NNC4=CC=CC(=C43)C2=O
How it was run: as §1

[7] = compound: C1CCN(C1)C(=O)NC2=CC=CC(=C2)NC3=NC=C(C(=N3)NCCC4=CN=CN4)Br
How it was run: as §1

[8] = compound: C1CN(CCC1(CC2=CC=C(C=C2)Cl)N)C3=NC=NC4=C3C=CN4
How it was run: as §1

IRAK-1-4 Inhibitor I = compound: C1COCCN1CCN2C3=CC=CC=C3N=C2NC(=O)C4=CC(=CC=C4)[N+](=O)[O-] [IRAK-1-4 Inhibitor I]
How it was run: as §1

ibrutinib = compound: C=CC(=O)N1CCC[C@@H](n2nc(-c3ccc(Oc4ccccc4)cc3)c3c(N)ncnc32)C1 [ibrutinib]
How it was run: as §1

[9] = compound: CC(=O)c1cnc2ccc(-c3cc(Cl)c(O)c(Cl)c3)nc2c1N[C@H]1CC[C@H](CN(C)C)CC1
How it was run: as §1

ralimetinib = compound: CC(C)(C)Cn1c(N)nc2ccc(-c3[nH]c(C(C)(C)C)nc3-c3ccc(F)cc3)nc21 [ralimetinib]
How it was run: as §1

[10] = compound: CC(C)(O)CC(=O)NCCn1ccc2ncnc(Nc3ccc(Oc4cccc(C(F)(F)F)c4)c(Cl)c3)c21
How it was run: as §1

[11] = compound: CC(C)C1=C2N=C(C=C(N2N=C1)NCC3=CC=CC=C3)NCCCCCCN
How it was run: as §1

[12] = compound: CC1=C(C(CC(=O)N1)C2=CC=C(C=C2)C(F)(F)F)C(=O)NC3=C(C=C4C(=C3)C=NN4)F
How it was run: as §1

[13] = compound: CC1=C(C2=C(C=C1)C(=O)C3=CC=CC=C3N2CCCN)C
How it was run: as §1

[14] = compound: CC1=C(C=C(C=C1)NC(=O)C2=CC(=CC=C2)C(C)(C)C#N)NC3=CC4=C(C=C3)N=CN(C4=O)C
How it was run: as §1

[15] = compound: CC1=C(C=C(C=C1)NC(=O)C2=CC(=CC=C2)N(C)C)NC(=O)C3=CC=C(C=C3)O
How it was run: as §1

[16] = compound: CC1=CC=C(C=C1)SC2=C3C=C(SC3=CN=C2)C(=O)N
How it was run: as §1

Measured: log2 fold change

NFKBIB (UniProt Q15653)
inactive: erlotinib 0.113 | [1] -0.135 | [2] 0 | [3] 0.03 | [4] 0.025 | [5] -0.026 | [6] 0.06 | [7] 0.016 | [8] -0.008 | IRAK-1-4 Inhibitor I 0.052 | ibrutinib -0.034 | [9] -0.037 | ralimetinib 0.048 | [10] -0.008 | [11] -0.029 | [12] -0.012 | [13] 0 | [14] 0.033 | [15] 0.06 | [16] -0.037

NDUFS7 (UniProt O75251)
inactive: erlotinib -0.003 | [1] 0.027 | [2] -0.126 | [3] -0.026 | [4] 0.032 | [5] 0.044 | [6] 0.046 | [7] -0.028 | [8] 0.009 | IRAK-1-4 Inhibitor I 0.006 | ibrutinib -0.016 | [9] 0.018 | ralimetinib 0.035 | [10] -0.056 | [11] 0 | [12] 0.039 | [13] 0.038 | [14] 0.014 | [15] -0.014 | [16] 0.056

NFATC2IP (UniProt Q8NCF5)
inactive: erlotinib 0.001 | [1] 0.026 | [2] -0.036 | [3] 0.006 | [4] 0.016 | [5] 0.031 | [6] -0.071 | [7] 0.013 | [8] -0.016 | IRAK-1-4 Inhibitor I -0.009 | ibrutinib 0.015 | [9] -0.037 | ralimetinib 0 | [10] -0.052 | [11] 0.01 | [12] -0.021 | [13] -0.019 | [14] -0.047 | [15] 0.013 | [16] 0.011

NFATC2 (UniProt Q13469)
inactive: erlotinib 0.002 | [1] 0.067 | [2] 0.014 | [3] 0.032 | [4] -0.016 | [5] 0.002 | [6] -0.144 | [7] -0.018 | [8] -0.049 | IRAK-1-4 Inhibitor I 0.033 | ibrutinib 0.012 | [9] 0.039 | ralimetinib -0.022 | [10] -0.061 | [11] 0.026 | [12] 0.004 | [13] -0.018 | [14] -0.026 | [15] 0.033 | [16] -0.031

NEDD4 isoform 4 (UniProt P46934)
inactive: erlotinib -0.001 | [1] -0.057 | [2] 0.023 | [3] 0.018 | [4] 0.052 | [5] -0.004 | [6] -0.023 | [7] -0.005 | [8] -0.031 | IRAK-1-4 Inhibitor I -0.007 | ibrutinib -0.008 | [9] 0.015 | ralimetinib 0.001 | [10] -0.019 | [11] -0.045 | [12] -0.002 | [13] 0.011 | [14] -0.014 | [15] -0.012 | [16] 0

NLN (UniProt Q9BYT8)
inactive: erlotinib 0.007 | [1] -0.067 | [2] 0.029 | [3] 0 | [4] 0.024 | [5] -0.014 | [6] -0.003 | [7] 0.001 | [8] -0.004 | IRAK-1-4 Inhibitor I 0 | ibrutinib -0.012 | [9] -0.007 | ralimetinib -0.003 | [10] -0.012 | [11] -0.016 | [12] -0.021 | [13] 0.004 | [14] 0.013 | [15] 0.001 | [16] -0.008

NFKBIE (UniProt O00221)
inactive: erlotinib 0.014 | [1] -0.009 | [2] -0.117 | [3] 0.059 | [4] -0.022 | [5] 0.059 | [6] -0.026 | [7] -0.078 | [8] 0.081 | IRAK-1-4 Inhibitor I 0.119 | ibrutinib -0.018 | [9] 0.054 | ralimetinib -0.008 | [10] -0.059 | [11] -0.05 | [12] 0.015 | [13] -0.044 | [14] 0.027 | [15] 0.05 | [16] 0.018

NLE1 (UniProt Q9NVX2)
inactive: erlotinib 0.002 | [1] 0.007 | [2] 0.022 | [3] -0.026 | [4] 0.006 | [5] 0.017 | [6] 0.033 | [7] 0.038 | [8] -0.017 | IRAK-1-4 Inhibitor I 0.014 | ibrutinib 0.018 | [9] -0.006 | ralimetinib 0.01 | [10] -0.01 | [11] -0.022 | [12] -0.011 | [13] -0.009 | [14] 0.003 | [15] 0.003 | [16] -0.007

NDUFAF4 (UniProt Q9P032)
inactive: erlotinib -0.016 | [1] -0.038 | [2] -0.054 | [3] -0.022 | [4] -0.007 | [5] -0.017 | [6] -0.033 | [7] -0.003 | [8] -0.004 | IRAK-1-4 Inhibitor I 0.001 | ibrutinib 0.015 | [9] 0.013 | ralimetinib -0.02 | [10] -0.033 | [11] 0.016 | [12] -0.003 | [13] 0.005 | [14] -0.006 | [15] -0.008 | [16] -0.007

NDUFS6 (UniProt O75380)
inactive: erlotinib -0.02 | [1] 0.01 | [2] -0.024 | [3] -0.01 | [4] 0.001 | [5] -0.033 | [6] 0.013 | [7] 0.031 | [8] -0.003 | IRAK-1-4 Inhibitor I 0.023 | ibrutinib 0.075 | [9] -0.004 | ralimetinib 0.022 | [10] -0.004 | [11] -0.035 | [12] 0.052 | [13] 0.018 | [14] -0.014 | [15] -0.065 | [16] -0.043

Reprinted at random: 2 records from the list.
NLN (UniProt Q9BYT8)
inactive: erlotinib 0.007 | [1] -0.067 | [2] 0.029 | [3] 0 | [4] 0.024 | [5] -0.014 | [6] -0.003 | [7] 0.001 | [8] -0.004 | IRAK-1-4 Inhibitor I 0 | ibrutinib -0.012 | [9] -0.007 | ralimetinib -0.003 | [10] -0.012 | [11] -0.016 | [12] -0.021 | [13] 0.004 | [14] 0.013 | [15] 0.001 | [16] -0.008

NDUFAF4 (UniProt Q9P032)
inactive: erlotinib -0.016 | [1] -0.038 | [2] -0.054 | [3] -0.022 | [4] -0.007 | [5] -0.017 | [6] -0.033 | [7] -0.003 | [8] -0.004 | IRAK-1-4 Inhibitor I 0.001 | ibrutinib 0.015 | [9] 0.013 | ralimetinib -0.02 | [10] -0.033 | [11] 0.016 | [12] -0.003 | [13] 0.005 | [14] -0.006 | [15] -0.008 | [16] -0.007

More results:

NIPBL (UniProt Q6KC79)
inactive: erlotinib -0.025 | [1] 0.044 | [2] -0.003 | [3] 0.009 | [4] 0.005 | [5] -0.013 | [6] 0.003 | [7] -0.014 | [8] 0.007 | IRAK-1-4 Inhibitor I -0.043 | ibrutinib 0.026 | [9] 0.008 | ralimetinib 0.035 | [10] -0.016 | [11] 0.036 | [12] 0.007 | [13] -0.025 | [14] -0.03 | [15] -0.044 | [16] 0.021

NFX1 (UniProt Q12986)
inactive: erlotinib 0.008 | [1] 0.003 | [2] 0.053 | [3] -0.004 | [4] 0.022 | [5] 0.015 | [6] -0.006 | [7] 0.13 | [8] 0.011 | IRAK-1-4 Inhibitor I -0.004 | ibrutinib -0.014 | [9] -0.021 | ralimetinib -0.059 | [10] 0.01 | [11] 0.068 | [12] 0.018 | [13] 0.109 | [14] -0.007 | [15] -0.007 | [16] -0.114

NHP2 (UniProt Q9NX24)
inactive: erlotinib -0.015 | [1] -0.101 | [2] 0.023 | [3] 0.02 | [4] -0.026 | [5] -0.088 | [6] -0.014 | [7] 0.01 | [8] 0.031 | IRAK-1-4 Inhibitor I -0.009 | ibrutinib -0.071 | [9] -0.038 | ralimetinib -0.025 | [10] -0.067 | [11] 0.008 | [12] -0.001 | [13] -0.015 | [14] -0.077 | [15] 0.017 | [16] -0.058

NDUFS2 (UniProt O75306)
inactive: erlotinib -0.003 | [1] 0.036 | [2] -0.07 | [3] 0.008 | [4] 0.048 | [5] -0.004 | [6] 0 | [7] 0.01 | [8] -0.001 | IRAK-1-4 Inhibitor I 0.022 | ibrutinib -0.001 | [9] 0.015 | ralimetinib -0.003 | [10] -0.014 | [11] 0.002 | [12] 0.004 | [13] 0.042 | [14] 0.01 | [15] -0.019 | [16] 0.013

NDUFAB1 (UniProt O14561)
inactive: erlotinib 0.059 | [1] 0.055 | [2] -0.101 | [3] 0.003 | [4] 0.126 | [5] -0.05 | [6] 0.019 | [7] 0.142 | [8] 0.106 | IRAK-1-4 Inhibitor I -0.011 | ibrutinib 0.026 | [9] -0.117 | ralimetinib -0.008 | [10] -0.036 | [11] 0.005 | [12] -0.013 | [13] 0.101 | [14] 0.139 | [15] -0.012 | [16] 0.087

NF2 (UniProt P35240)
inactive: erlotinib -0.012 | [1] 0.061 | [2] 0.003 | [3] 0.026 | [4] -0.026 | [5] -0.01 | [6] -0.02 | [7] -0.046 | [8] 0.026 | IRAK-1-4 Inhibitor I 0.011 | ibrutinib 0.005 | [9] -0.01 | ralimetinib 0.028 | [10] -0.038 | [11] 0.015 | [12] 0.007 | [13] -0.004 | [14] 0.056 | [15] 0.017 | [16] -0.042
